Reference: publication PMC12607630

Amino acid sequences for entries named in this document (tags omitted). A change or cut given only in a name is not applied to a line headed by its entry.
UniProt P0A9A6: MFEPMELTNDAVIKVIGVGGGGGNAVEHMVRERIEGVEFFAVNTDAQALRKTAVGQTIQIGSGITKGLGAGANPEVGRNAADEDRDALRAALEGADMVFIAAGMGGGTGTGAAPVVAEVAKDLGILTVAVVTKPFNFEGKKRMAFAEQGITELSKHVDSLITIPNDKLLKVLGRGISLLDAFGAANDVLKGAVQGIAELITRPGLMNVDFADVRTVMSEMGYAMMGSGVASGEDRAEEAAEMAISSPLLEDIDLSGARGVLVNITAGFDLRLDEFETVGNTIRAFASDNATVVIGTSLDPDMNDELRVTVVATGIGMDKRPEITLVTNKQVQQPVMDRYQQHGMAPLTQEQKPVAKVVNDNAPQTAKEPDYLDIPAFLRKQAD
UniProt P75862: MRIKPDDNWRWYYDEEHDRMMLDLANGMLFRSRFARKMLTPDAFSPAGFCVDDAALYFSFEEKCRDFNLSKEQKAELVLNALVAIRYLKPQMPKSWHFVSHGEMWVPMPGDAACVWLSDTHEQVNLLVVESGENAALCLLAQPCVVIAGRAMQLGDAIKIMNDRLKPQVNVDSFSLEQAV

Assays:
Experiment in all cases: two-hybrid; bacterial two-hybrid in strain LYA1 (BTH101, ftsA^R286W); LB plates with antibiotics, 40 µg/mL X-gal and IPTG, 30°C, about 18 hours
[1] = target: FtsZ F285S A376T, FtsZ-T25 fusion (bacterial two-hybrid) (Escherichia coli) (UniProt P0A9A6)
[2] = target: FtsZ-T25 fusion (bacterial two-hybrid) (Escherichia coli) (UniProt P0A9A6)
[3] = target: FtsZ F285S I323L, FtsZ-T25 fusion (bacterial two-hybrid) (Escherichia coli) (UniProt P0A9A6)
[4] = target: FtsZ^I323L, FtsZ-T25 fusion (bacterial two-hybrid) (Escherichia coli) (UniProt P0A9A6)
[5] = target: FtsZ D360Y, FtsZ-T25 fusion (bacterial two-hybrid) (Escherichia coli) (UniProt P0A9A6)
[6] = target: FtsZ F285S D360Y, FtsZ-T25 fusion (bacterial two-hybrid) (Escherichia coli) (UniProt P0A9A6)
[7] = target: FtsZ A376T, FtsZ-T25 fusion (bacterial two-hybrid) (Escherichia coli) (UniProt P0A9A6)
[8] = target: FtsZ I323L A376T, FtsZ-T25 fusion (bacterial two-hybrid) (Escherichia coli) (UniProt P0A9A6)
[9] = target: FtsZ^F285S, FtsZ-T25 fusion (bacterial two-hybrid) (Escherichia coli) (UniProt P0A9A6)

binding [1]: no binding
binding [2]: binds
binding [3]: no binding
binding [4]: binds
binding [5]: binds
binding [6]: no binding
binding [7]: binds
binding [8]: no binding
binding [9]: binds
Substance: ZapC (bacterial two-hybrid fusion) (from UniProt P75862 1-180)

No constants are given. Whether binding was seen depends on the method and setting. For part of these data: Binding calls can cover weak binding; strength is not graded here.
